Among all 320,000 compounds or so, about 22,000 (6.9%) were called active. The shares of active, inactive and inconclusive entries below differ from those in the screen. The call rests on the fitted dose curve; in most records, active means well fitted inhibition curve with a large enough effect; inconclusive means small, poorly fitted or top-dose-only effect, or another doubt; inactive means no such curve, though single readings can be large or run the other way. Where the call is inconclusive, the potency comes from a doubtful curve fit.
Test: Primary qHTS for delayed death inhibitors of the malarial parasite plastid, 96 hour incubation
Conditions: P. falciparum luciferase reporter growth; series mostly up to 28.7 µM; activity change, negative = inhibition: at the top concentration
In short: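 Two-generation exposure (96 h) targets delayed-death phenotype. Reporter parasites carrying integrated firefly luciferase, in red cells at 2% hematocrit and 0.05% parasitemia final, kept at 37 C, 5% CO2; luminescence loss indicates inhibition.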
On the % scale 0 is the no-effect control and ±100 the full control effect; potency means the concentration at half of the fitted maximal effect.

SMILES	activity change, negative = inhibition	Potency
Cc1ccc(CNC(=O)c2cc(S(=O)(=O)N3CCCC3)cn2C)cc1	inactive: -6.36%	
CCOCCCNC(=O)c1ccc(Cn2c(=O)[nH]c3ccsc3c2=O)cc1	inactive: -29.2%	
Cc1cccc(NC(=O)CSCC(=O)NCc2ccco2)c1	inactive: 29.5%	
COc1cc(C2N(c3cccc(Cl)c3)C(=O)C3CCCN32)cc(OC)c1OC (stereo unspecified)	inactive: -18.4%	
O=C(N/N=C/c1ccccn1)c1ccc(Br)cc1		inconclusive: 20.8 µM [inhibitor, partial curve, poor fit]
Cc1cccc(NC(=O)c2ccc(Cl)c(S(=O)(=O)N3CCCC3)c2)n1		active: 7.38 µM
Cc1ccc(Cl)cc1N1CCN(C(c2ccc(C#N)cc2)c2nnnn2C2CCCC2)CC1 (stereo unspecified)	inactive: 2.1%	
CN(C)S(=O)(=O)c1ccc(Nc2nc(C3CC3)nc3c2nnn3Cc2ccccc2Cl)cc1		inconclusive: 1.85 µM [inhibitor, partial curve, poor fit]
CN(C)c1nnnn1-c1ccccc1Oc1ncc(C(F)(F)F)cc1Cl		inconclusive: 2.08 µM [inhibitor, full curve]
NNC(=O)c1oc2nc(-c3cccs3)cc(-c3ccco3)c2c1N		inconclusive: 18.5 µM [inhibitor, single point]
Cc1cccc(N2C(=O)CC(N3CCN(c4cccc(C(F)(F)F)c4)CC3)C2=O)c1 (stereo unspecified)	inactive: 0.283%	
Cc1csc(NC(=O)CSc2nnc3ncccn23)n1		inconclusive: 18.5 µM [inhibitor, single point]
CCOC(=O)c1ccc[n+](CC(=O)c2ccc(NC(=O)c3ccccc3)cc2)c1		inconclusive: 18.5 µM [inhibitor, single point]
Cc1ccc(S(=O)(=O)N2CCOCC2)cc1NC(=O)COC(=O)c1ccc(OCc2c(C)noc2C)cc1		inconclusive: 0.233 µM [inhibitor, full curve, poor fit]
COc1ccc([C@H]2CC(=O)C=C(/C=C/c3ccccc3)C2)cc1OC		inconclusive: 18.5 µM [inhibitor, single point]
Cc1ccc(Cl)cc1N1CCN(C(=O)C2CCN(S(=O)(=O)c3cccnc3)CC2)CC1		inconclusive: 0.415 µM [inhibitor, partial curve, poor fit]
CCCCCCn1c(CN2CCCCC2C)nc2c1c(=O)n(C)c(=O)n2C (stereo unspecified)		inconclusive: 18.5 µM [inhibitor, single point]
CN(CC(=O)Nc1ccc(Cl)cc1)C(=O)c1ccc(NS(=O)(=O)c2ccc3[nH]c(=O)[nH]c3c2)cc1		inconclusive: 20.8 µM [inhibitor, partial curve, poor fit]
CCOC(=O)C1CCN(C(=O)CCc2c(C)nc3c(-c4ccc(F)cc4)c(C)nn3c2C)CC1		active: 10.4 µM
NC(=S)n1[nH]c(-c2ccccc2)c(N=Nc2ccccc2C(=O)N2CCOCC2)c1=O		inconclusive: 3.7 µM [inhibitor, full curve, poor fit]
Nc1nc(SCC(=O)c2cccs2)n[nH]1		inconclusive: 0.104 µM [inhibitor, full curve, poor fit]
CCc1nn(CC(=O)N(C)C2CCCCC2)c(=O)c2cc3cc(C)ccc3n12	inactive: 27%	
Cc1ccc(S(=O)(=O)N2CCCC2)cc1[N+](=O)[O-]		inconclusive: 18.5 µM [inhibitor, single point]
CCOC(=O)Cc1csc(SCC(=O)c2c(N)n(CC(C)C)c(=O)n(C)c2=O)n1	inactive: 6.43%	

Random excerpt: 4 compounds from above
SMILES	activity change, negative = inhibition	Potency
Cc1ccc(Cl)cc1N1CCN(C(c2ccc(C#N)cc2)c2nnnn2C2CCCC2)CC1 (stereo unspecified)	inactive: 2.1%	
Cc1cccc(NC(=O)CSCC(=O)NCc2ccco2)c1	inactive: 29.5%	
COc1ccc([C@H]2CC(=O)C=C(/C=C/c3ccccc3)C2)cc1OC		inconclusive: 18.5 µM [inhibitor, single point]
O=C(N/N=C/c1ccccn1)c1ccc(Br)cc1		inconclusive: 20.8 µM [inhibitor, partial curve, poor fit]

Additional compounds

SMILES	activity change, negative = inhibition	Potency
COc1ccc(-c2cn3ccccc3n2)cc1[N+](=O)[O-]	inactive: 162%	
CCC(C)C(=O)Nc1ccc([N+](=O)[O-])cc1OC (stereo unspecified)	inactive: 38.6%	
Cc1ccnc2nc(C(=O)OCCOc3cccc(Br)c3)nn12		inconclusive: 9.28 µM [inhibitor, partial curve, poor fit]
Cc1cccc(-c2nnn3c2nc(NCCc2ccc(S(N)(=O)=O)cc2)c2ccccc23)c1		inconclusive: 2.94 µM [inhibitor, partial curve, poor fit]
CN1CCN(c2ccncc2S(=O)(=O)N2CCCCC2)CC1		inconclusive: 0.0029 µM [inhibitor, full curve, poor fit]
COCCN(C(=O)CSc1nnc(-c2ccc(C)c(C)c2)o1)c1c(N)n(CC(C)C)c(=O)[nH]c1=O		inconclusive: 11.7 µM [inhibitor, partial curve, poor fit]
Cc1nnc(SCC(=O)Nc2ncc(Cc3ccc(F)cc3)s2)n1N	inactive: 17.4%	
COc1ccccc1NC(=O)/C(=C\c1cccnc1)NC(=O)c1ccccc1	inactive: 26.3%	
CSc1nc(-c2ccc(Cl)cc2)nn1S(=O)(=O)c1ccccc1	inactive: 97.9%	
Cc1ccc(NC(=O)COC(=O)CCOc2ccccc2C)cc1		inconclusive: 10.4 µM [inhibitor, partial curve, poor fit]
COc1ccc(/C(N)=N/OC(=O)C2CCCCC2)cc1	inactive: 200%	
COCc1[nH]nc2c1C1(CCC3(CC1)OCCO3)C(C#N)=C(N)O2		inconclusive: 18.5 µM [inhibitor, single point]
CC(C)N1C(=O)C2C(C(=O)NCc3ccccc3)C3C=CC2(O3)C1C(=O)NC(C)(C)C (stereo unspecified)		inconclusive: 14.7 µM [inhibitor, partial curve, poor fit]
COCCNC(=O)CSc1nc2cc3c(cc2c(=O)n1CCCC(=O)NCc1ccc(OC)cc1)OCO3		inconclusive: 4.15 µM [inhibitor, single point]
CC1(C)CC(NC(=O)C2CCN(S(=O)(=O)c3ccc(F)cc3)CC2)CC(C)(C)N1	inactive: -39%	
CCN(CC)CCN(Cc1cc2ccc(C)cc2[nH]c1=O)C(=O)NC1CCCCC1	inactive: 7.22%	
COc1ccc(N(CC(=O)NCCC2=CCCCC2)S(=O)(=O)c2ccccc2)c(OC)c1	inactive: 18.3%	
Cc1ccc(S(=O)(=O)N2CCN(Cc3ccccc3)CC2)cc1	inactive: 3.28%	
CCOc1ccc2nc(NC(=O)CN3C(=O)NC4(CCCC4)C3=O)sc2c1	inactive: 52.9%	
Cc1ccc(C)n1-c1ccccc1N1CCCCC1		inconclusive: 13.1 µM [inhibitor, partial curve, poor fit]
CCCCC(=O)NC(c1ccc(OC)c(OC)c1)c1c(O)ccc2ccccc12 (stereo unspecified)		active: 11.7 µM
O=C(N/N=C/c1ccccn1)c1cccc([N+](=O)[O-])c1	inactive: -1.93%	
COc1ccc(N(CCCN2C(=O)c3cccc4cccc(c34)C2=O)C(=O)c2ccncc2)cc1		active: 1.47 µM
C/C(=N\Nc1nc(N)cc(Cl)n1)c1cccc([N+](=O)[O-])c1		inconclusive: 20.8 µM [inhibitor, partial curve, poor fit]

SMILES	activity change, negative = inhibition	Potency
CCCn1c(C2CCCN2c2nc(-c3cccc(Br)c3)cs2)nc2cc(Cl)c(Cl)cc21 (stereo unspecified)		active: 9.28 µM
CC1CCN(C(=O)c2ccc(COc3ccccc3Cl)o2)CC1		active: 10.4 µM
COC(=O)C(C)Nc1cccc(Br)c1 (stereo unspecified)	inactive: 18.5%	
CCOC(=O)c1ccc(N2CCOCC2)c(NC(=O)c2nccnc2C(=O)O)c1	inactive: -0.663%	
COc1ccc(CCN(C)C(=O)c2cc(-c3ccccc3)nc3ccc(C)cc23)cc1OC	inactive: -98.7%	
COCCNC(=O)C1CC2Cn3c(nc4ccccc43)C2N1C (stereo unspecified)		inconclusive: 0.0033 µM [inhibitor, full curve, poor fit]
COC(=O)CNc1nc(-c2ccncc2)nc2ccccc12	inactive: -3.3% [at 5.75 µM]	
N#CCCN(C(=O)COC(=O)C1=NNC(=O)CC1)c1ccccc1	inactive: 16.9%	
CCn1c(SCc2nc3scc(-c4ccccc4)c3c(=O)[nH]2)nnc1-c1cccs1		inconclusive: 16.5 µM [inhibitor, single point]
O=C(NCc1cn(-c2ccccc2)nc1-c1ccccc1)c1cc([N+](=O)[O-])cc([N+](=O)[O-])c1		inconclusive: 4.15 µM [inhibitor, partial curve, poor fit]
Cc1cc(N2CCOCC2)nc2ccc(NC(=O)CCC(=O)N3CCCCC3)cc12	inactive: 0%	
COC(=O)N/N=C/c1ccc(OS(=O)(=O)c2ccc(C)cc2)c(OC)c1		inconclusive: 18.5 µM [inhibitor, single point]
CCc1nc2ccccc2c(C(=O)Oc2cccc3cccnc23)c1C		inconclusive: 10.4 µM [inhibitor, single point]
O=C(NCc1ccccn1)c1cccc(NS(=O)(=O)c2ccccc2F)c1		inconclusive: 9.28 µM [inhibitor, single point]
CCc1ccc(OCC(O)CN2CCC(CN3C(=O)c4cccc5cccc(c45)C3=O)CC2)cc1 (stereo unspecified)		inconclusive: 4.15 µM [inhibitor, single point]
Cc1ccccc1C(=O)N1CCC(C(=O)Nc2ccc(C)c(S(=O)(=O)N3CCCCC3)c2)CC1		inconclusive: 9.28 µM [inhibitor, single point]
CCOC(=O)c1ccc(N2CCOCC2)c(NC(=O)c2c(-c3ccccc3)noc2C)c1		inconclusive: 7.38 µM [inhibitor, partial curve, poor fit]
O=C(O)CC1(CC(=O)Nc2cc(F)ccc2Cl)CCCCC1	inactive: 10%	
CCOC(=O)N1CCN(C(=O)CSCc2ccc(Br)cc2)CC1	inactive: -14%	
COc1cc(/C=C/c2nc(-c3ccccc3O)n[nH]2)cc(OC)c1OC		inconclusive: 11.7 µM [inhibitor, single point]
Cc1c(C)c2ccc(OCC(=O)Nc3ccc(CN4CCOCC4)cc3)cc2oc1=O		inconclusive: 9.28 µM [inhibitor, partial curve]
CCOC(=O)c1sc(NC(=O)Cc2ccc(F)cc2)nc1C		inconclusive: 18.5 µM [inhibitor, single point]
O=C(Oc1cccc(Br)c1)c1cccnc1		inconclusive: 5.22 µM [inhibitor, partial curve]

— PubChem BioAssay AID504834 (National Center for Advancing Translational Sciences (NCATS), 2011)
